# Measurements reported in the supplement of paper PMC12819154, “High-throughput peptide-centric local stability assay extends protein–ligand identification to membrane proteins, tissues and bacteria” (Nature Structural & Molecular Biology, 2025).
# Sequences of proteins named here, by UniProt entry; tags and fusion partners are left off. A change or cut given only in a name is not applied to a line headed by its entry.
# UniProt Q6ZMV8: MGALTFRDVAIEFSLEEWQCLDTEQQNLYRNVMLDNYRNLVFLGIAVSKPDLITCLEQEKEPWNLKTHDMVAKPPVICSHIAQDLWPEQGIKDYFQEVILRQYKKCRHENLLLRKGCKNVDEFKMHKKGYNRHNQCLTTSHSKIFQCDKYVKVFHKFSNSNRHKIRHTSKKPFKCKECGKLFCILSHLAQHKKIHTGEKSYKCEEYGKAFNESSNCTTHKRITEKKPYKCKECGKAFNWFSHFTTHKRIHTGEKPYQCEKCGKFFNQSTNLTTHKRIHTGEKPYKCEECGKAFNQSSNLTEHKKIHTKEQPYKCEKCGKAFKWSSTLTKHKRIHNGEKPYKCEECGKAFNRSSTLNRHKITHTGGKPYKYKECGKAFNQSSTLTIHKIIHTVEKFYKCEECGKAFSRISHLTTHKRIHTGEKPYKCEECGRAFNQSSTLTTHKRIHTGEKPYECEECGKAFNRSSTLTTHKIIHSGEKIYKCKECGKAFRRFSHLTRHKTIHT
# UniProt Q5W0B1: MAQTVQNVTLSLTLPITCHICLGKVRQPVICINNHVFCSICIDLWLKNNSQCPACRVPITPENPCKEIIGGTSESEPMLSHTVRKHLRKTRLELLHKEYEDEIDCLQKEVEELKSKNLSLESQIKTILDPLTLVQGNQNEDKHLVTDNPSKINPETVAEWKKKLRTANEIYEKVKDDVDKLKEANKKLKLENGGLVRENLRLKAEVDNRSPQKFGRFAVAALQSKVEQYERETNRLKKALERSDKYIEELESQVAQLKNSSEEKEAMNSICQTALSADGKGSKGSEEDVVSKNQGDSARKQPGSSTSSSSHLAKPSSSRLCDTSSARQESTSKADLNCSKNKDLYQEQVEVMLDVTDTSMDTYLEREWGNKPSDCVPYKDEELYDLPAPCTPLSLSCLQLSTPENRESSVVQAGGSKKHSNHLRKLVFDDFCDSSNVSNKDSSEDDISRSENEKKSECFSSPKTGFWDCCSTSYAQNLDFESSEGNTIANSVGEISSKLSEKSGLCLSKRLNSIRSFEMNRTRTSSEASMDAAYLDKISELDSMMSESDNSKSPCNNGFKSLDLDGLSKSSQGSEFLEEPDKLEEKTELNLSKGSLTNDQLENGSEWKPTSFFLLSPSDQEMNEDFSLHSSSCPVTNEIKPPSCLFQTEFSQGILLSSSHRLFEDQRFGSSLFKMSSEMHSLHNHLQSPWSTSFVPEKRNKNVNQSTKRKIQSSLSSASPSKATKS
# UniProt Q6ZMW2: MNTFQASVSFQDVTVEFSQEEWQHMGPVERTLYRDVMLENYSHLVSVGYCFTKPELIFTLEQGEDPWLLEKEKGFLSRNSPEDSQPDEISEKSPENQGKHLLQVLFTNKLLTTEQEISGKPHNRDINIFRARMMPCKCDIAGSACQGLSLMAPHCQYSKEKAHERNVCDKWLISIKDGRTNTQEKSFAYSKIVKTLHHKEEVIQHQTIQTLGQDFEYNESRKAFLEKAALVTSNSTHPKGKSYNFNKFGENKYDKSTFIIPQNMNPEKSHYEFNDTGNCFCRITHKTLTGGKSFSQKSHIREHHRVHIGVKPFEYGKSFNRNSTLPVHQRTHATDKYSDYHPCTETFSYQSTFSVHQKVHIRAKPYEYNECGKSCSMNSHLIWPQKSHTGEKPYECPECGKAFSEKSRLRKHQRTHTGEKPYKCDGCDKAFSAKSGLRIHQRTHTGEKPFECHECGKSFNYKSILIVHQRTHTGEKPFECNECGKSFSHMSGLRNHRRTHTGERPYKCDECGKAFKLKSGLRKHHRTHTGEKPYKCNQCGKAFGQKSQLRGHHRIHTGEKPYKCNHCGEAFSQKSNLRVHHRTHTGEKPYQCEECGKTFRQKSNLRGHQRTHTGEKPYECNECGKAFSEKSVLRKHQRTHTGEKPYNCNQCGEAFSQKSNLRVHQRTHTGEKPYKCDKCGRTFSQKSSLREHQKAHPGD
# UniProt Q6NVV1, whole entry: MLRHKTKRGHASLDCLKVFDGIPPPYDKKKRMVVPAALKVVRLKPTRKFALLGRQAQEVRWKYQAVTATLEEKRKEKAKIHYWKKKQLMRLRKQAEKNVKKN
# UniProt Q6UW68: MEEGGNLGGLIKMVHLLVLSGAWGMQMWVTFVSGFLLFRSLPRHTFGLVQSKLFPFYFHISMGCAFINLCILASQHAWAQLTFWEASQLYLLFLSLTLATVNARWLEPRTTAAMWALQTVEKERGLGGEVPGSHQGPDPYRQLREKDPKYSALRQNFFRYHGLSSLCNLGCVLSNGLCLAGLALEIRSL
# UniProt Q6XQN6: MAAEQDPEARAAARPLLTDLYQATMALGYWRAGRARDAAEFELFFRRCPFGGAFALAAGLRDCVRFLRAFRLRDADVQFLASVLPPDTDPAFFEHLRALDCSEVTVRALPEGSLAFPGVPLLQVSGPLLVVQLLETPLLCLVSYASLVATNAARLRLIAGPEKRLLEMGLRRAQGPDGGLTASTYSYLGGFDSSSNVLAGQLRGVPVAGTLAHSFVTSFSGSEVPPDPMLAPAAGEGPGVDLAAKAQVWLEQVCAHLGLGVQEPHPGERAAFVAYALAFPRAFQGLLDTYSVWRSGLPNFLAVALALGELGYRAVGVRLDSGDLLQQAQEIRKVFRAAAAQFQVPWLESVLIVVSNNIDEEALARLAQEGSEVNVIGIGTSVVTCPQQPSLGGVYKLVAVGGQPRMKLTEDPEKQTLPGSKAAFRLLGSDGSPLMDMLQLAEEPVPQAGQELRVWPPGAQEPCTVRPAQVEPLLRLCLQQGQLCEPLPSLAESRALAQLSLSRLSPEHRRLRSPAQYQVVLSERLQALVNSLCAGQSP
# UniProt Q6AHZ1: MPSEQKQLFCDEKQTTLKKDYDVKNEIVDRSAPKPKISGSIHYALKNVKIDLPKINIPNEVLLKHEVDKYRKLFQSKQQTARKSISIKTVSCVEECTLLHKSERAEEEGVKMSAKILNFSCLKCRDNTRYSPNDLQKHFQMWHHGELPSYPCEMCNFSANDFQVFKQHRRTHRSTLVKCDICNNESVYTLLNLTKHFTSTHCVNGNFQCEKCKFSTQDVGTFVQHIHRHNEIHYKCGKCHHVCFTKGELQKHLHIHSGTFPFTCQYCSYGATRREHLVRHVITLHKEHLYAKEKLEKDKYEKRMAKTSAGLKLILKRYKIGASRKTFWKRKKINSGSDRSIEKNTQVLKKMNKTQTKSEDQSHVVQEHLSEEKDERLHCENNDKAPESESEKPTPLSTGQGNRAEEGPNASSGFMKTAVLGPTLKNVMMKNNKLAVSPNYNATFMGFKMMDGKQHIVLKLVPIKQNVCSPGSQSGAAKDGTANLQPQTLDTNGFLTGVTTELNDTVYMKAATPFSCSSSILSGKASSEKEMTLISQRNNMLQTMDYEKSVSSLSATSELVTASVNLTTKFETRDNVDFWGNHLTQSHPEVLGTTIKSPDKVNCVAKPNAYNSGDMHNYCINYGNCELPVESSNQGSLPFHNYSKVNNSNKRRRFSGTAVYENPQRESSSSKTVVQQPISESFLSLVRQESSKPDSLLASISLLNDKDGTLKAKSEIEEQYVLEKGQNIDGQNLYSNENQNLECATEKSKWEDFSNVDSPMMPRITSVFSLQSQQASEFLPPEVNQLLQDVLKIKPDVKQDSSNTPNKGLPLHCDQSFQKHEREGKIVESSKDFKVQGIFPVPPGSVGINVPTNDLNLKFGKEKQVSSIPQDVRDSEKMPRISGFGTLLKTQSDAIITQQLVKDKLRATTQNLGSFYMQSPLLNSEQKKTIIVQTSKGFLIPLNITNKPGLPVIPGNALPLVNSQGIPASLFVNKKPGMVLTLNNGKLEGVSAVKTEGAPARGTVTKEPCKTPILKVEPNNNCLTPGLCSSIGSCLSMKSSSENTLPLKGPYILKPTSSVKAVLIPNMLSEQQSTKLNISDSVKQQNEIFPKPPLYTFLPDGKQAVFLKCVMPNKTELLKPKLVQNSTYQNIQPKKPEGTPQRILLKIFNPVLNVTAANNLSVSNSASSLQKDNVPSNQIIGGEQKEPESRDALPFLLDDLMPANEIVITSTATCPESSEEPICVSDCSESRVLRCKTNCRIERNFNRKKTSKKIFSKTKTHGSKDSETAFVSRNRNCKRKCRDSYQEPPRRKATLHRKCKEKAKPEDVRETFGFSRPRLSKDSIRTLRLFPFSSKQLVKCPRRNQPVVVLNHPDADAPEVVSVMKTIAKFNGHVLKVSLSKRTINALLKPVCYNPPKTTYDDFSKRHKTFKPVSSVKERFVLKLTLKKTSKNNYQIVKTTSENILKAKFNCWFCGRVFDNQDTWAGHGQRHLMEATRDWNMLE
# UniProt Q6PJP8: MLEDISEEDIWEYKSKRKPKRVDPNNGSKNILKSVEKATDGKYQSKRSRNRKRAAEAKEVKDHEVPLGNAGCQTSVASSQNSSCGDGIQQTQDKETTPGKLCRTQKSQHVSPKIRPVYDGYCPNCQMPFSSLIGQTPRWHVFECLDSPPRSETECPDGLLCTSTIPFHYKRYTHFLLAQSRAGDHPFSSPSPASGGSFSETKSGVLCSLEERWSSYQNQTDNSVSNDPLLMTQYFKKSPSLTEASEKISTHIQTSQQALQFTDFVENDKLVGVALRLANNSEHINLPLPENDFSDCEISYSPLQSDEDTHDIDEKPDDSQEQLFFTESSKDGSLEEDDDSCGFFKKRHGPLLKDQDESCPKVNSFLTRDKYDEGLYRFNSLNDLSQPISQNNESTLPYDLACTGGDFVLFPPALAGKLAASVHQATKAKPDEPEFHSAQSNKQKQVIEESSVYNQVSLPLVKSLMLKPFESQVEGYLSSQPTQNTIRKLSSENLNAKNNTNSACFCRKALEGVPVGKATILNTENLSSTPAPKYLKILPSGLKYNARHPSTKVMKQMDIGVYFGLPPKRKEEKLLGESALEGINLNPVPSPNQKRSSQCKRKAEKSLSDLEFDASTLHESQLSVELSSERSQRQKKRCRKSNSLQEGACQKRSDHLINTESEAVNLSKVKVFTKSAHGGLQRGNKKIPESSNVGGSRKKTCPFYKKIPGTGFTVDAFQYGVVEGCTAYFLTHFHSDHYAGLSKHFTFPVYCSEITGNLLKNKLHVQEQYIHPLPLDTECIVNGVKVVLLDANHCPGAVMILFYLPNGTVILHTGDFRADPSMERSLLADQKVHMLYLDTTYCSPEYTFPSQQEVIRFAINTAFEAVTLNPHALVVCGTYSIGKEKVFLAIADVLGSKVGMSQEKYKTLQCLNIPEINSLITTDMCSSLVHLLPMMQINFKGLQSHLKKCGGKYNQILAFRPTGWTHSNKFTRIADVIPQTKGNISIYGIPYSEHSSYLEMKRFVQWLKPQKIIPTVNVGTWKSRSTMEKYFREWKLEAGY
# UniProt Q6UXN9, whole entry: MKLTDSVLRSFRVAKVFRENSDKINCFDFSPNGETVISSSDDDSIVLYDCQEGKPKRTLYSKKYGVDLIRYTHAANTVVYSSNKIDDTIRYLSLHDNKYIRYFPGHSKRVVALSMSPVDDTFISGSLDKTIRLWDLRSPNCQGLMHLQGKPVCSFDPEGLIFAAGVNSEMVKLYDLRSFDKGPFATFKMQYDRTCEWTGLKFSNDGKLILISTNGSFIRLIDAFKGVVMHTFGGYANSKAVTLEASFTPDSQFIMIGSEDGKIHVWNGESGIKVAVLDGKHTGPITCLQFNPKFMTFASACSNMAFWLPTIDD
# UniProt Q6P1L5: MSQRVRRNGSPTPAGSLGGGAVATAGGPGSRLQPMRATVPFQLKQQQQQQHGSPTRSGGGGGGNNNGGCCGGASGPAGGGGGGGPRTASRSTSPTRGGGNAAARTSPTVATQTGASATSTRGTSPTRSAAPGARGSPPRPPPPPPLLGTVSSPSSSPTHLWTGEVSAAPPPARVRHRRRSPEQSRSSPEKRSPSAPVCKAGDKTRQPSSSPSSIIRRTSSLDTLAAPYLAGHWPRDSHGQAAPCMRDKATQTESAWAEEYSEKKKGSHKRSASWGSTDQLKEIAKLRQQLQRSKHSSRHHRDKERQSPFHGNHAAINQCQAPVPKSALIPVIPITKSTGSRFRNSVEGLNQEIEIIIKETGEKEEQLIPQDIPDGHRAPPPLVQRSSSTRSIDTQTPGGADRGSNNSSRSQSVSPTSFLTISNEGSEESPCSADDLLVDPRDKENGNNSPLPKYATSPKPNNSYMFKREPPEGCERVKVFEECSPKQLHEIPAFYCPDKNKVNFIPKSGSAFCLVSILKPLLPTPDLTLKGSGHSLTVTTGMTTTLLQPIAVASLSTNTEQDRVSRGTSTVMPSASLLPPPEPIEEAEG
# UniProt Q67FW5: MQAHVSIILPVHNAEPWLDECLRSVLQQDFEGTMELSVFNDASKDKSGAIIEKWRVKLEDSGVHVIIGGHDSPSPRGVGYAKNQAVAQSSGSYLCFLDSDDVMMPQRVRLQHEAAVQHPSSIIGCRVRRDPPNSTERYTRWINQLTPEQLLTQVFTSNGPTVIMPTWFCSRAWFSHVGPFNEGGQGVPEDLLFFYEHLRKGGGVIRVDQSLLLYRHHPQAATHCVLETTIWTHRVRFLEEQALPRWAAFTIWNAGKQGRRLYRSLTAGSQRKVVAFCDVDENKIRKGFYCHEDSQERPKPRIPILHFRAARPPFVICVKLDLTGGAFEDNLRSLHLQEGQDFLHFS
# This is one part of the list. Small differences around the control level are noise.
# Compound: CN[C@@H]1C[C@H]2O[C@@](C)([C@@H]1OC)n1c3ccccc3c3c4c(c5c6ccccc6n2c5c31)C(=O)NC4 [staurosporine]
# Assay: log2 fold change of tryptic peptide abundance, ligand vs vehicle (limited proteolysis) (log2 ratio); higher = more trypsin-susceptible (destabilized)
# Settings: ligand concentration: 20 uM; sample: K562 cleared lysate; digestion: 4 min, 22 C (HT-PELSA RT4min, Orbitrap Astral)
row,Target,log2 fold change
1,"C6orf89 (peptide sequence: CSFLHPEPVVGSK, peptide start residue: 263) (UniProt Q6UWU4)",0.139
2,"UniProt Q6ZMV8 (peptide sequence: IHTGEKPYECEECGK, peptide start residue: 335)",-0.369
3,"UniProt Q63HN8 (peptide sequence: EACNQDALQEAGTFR, peptide start residue: 3607)",0.757
4,"UniProt Q6IE81 (peptide sequence: VLEEFEQR, peptide start residue: 174)",0.119
5,"UniProt Q6IQ49 (peptide sequence: MVTETEETQEK, peptide start residue: 312)",-0.144
6,"TET2 (peptide sequence: NLLDTPVK, peptide start residue: 1118) (UniProt Q6N021)",-0.439
7,"UniProt Q5W0B1 (peptide sequence: KIQSSLSSASPSK, peptide start residue: 710)",1.67
8,"UniProt Q6ZMW2 (peptide sequence: AALVTSNSTHPK, peptide start residue: 228)",0.273
9,"RPL22L1 (peptide sequence: TGNLGNVVHIER, peptide start residue: 48) (UniProt Q6P5R6)",0.142
10,"UniProt Q6NVV1 (peptide sequence: YQAVTATLEEKRK, peptide start residue: 149)",0.255
11,"TMEM205 (peptide sequence: GLGGEVPGSHQGPDPYR, peptide start residue: 125) (UniProt Q6UW68)",-0.0869
12,"UniProt Q6XQN6 (peptide sequence: ARDAAEFELFFR, peptide start residue: 35)",-0.52
13,"CDCA2 (peptide sequence: SSLNGKGESSLTALER, peptide start residue: 999) (UniProt Q69YH5)",0.577
14,"FAM160B1 (peptide sequence: GVPNVISEDTLK, peptide start residue: 184) (UniProt Q5W0V3)",0.109
15,"UniProt Q6AHZ1 (peptide sequence: INIPNEVLLK, peptide start residue: 55)",0.208
16,"UniProt Q6PJP8 (peptide sequence: RSDHLINTESEAVNLSK, peptide start residue: 652)",0.667
17,"UniProt Q6ZMI0 (peptide sequence: ILLSSTESR, peptide start residue: 550)",0.448
18,"TRAF7 (peptide sequence: DASMLNDELSHINAR, peptide start residue: 357) (UniProt Q6Q0C0)",-0.08
19,"UniProt Q6UXN9 (peptide sequence: YTHAANTVVYSSNK, peptide start residue: 71)",-0.207
20,"UniProt Q6PDB4 (peptide sequence: CLDPAQR, peptide start residue: 24)",0.00976
21,"THADA (peptide sequence: DLNASVVNIDTSTEIK, peptide start residue: 1020) (UniProt Q6YHU6)",-0.477
22,"ZC3H14 (peptide sequence: HEAAVPPLAIPSARPEKR, peptide start residue: 110) (UniProt Q6PJT7)",-0.309
23,"UniProt Q6GYQ0 (peptide sequence: EEENGTNTADHVR, peptide start residue: 482)",-1.03
24,"CIAPIN1 (peptide sequence: CASCPYLGMPAFKPGEK, peptide start residue: 285) (UniProt Q6FI81)",0.145
25,"UniProt Q68CZ6 (peptide sequence: EVTQIKDR, peptide start residue: 327)",0.52
26,"FAM117B (peptide sequence: DSHGQAAPCMR, peptide start residue: 236) (UniProt Q6P1L5)",-0.923
27,"B3GNTL1 (peptide sequence: SLHLQEGQDFLHFS, peptide start residue: 348) (UniProt Q67FW5)",-0.0472

# 2 records drawn at random from those above, as already listed:
row,Target,log2 fold change
8,"UniProt Q6ZMW2 (peptide sequence: AALVTSNSTHPK, peptide start residue: 228)",0.273
27,"B3GNTL1 (peptide sequence: SLHLQEGQDFLHFS, peptide start residue: 348) (UniProt Q67FW5)",-0.0472
